Laboratory results published in PubChem BioAssay AID330 (DTP/NCI, 2004).
Inconclusive results and toxic doses are left out. Rule for the calls: active = survival T/C of 150% or more; inactive = T/C below 125% in these data.

System: P388 leukemia ip, CD2F1 mice, survival T/C
Assay: NCI In Vivo Anticancer Drug Screen. Data for tumor model P388 Leukemia (intraperitoneal) in CD2F1 (CDF1) mice
Details: endpoint: median survival time, schedule: Q01DX005 (ip), vehicle: Klucel (hydroxypropylcellulose) (HPC), higher = longer survival
Method: The antitumor activity of compounds was measured in mice bearing transplantable tumors. Survival or tumor size were measured and the results are expressed as the measurement made in the treated group (T) divided by the measurement made in the vehicle treated control group (C). The tumor model used in this assay is P388 Leukemia (intraperitoneal) in CD2F1 (CDF1) mice

Measured: T/C

CCCC(NC(=O)OC(C)(C)C)C(=O)O (stereo not drawn)
inactive: dose: 50.0 mg/kg/injection 104 % of control | dose: 100.0 mg/kg/injection 93 % of control | dose: 200.0 mg/kg/injection 95 % of control
